Test results reported in the supplement of paper PMC12823440, “Inhibitors supercharge kinase turnover through native proteolytic circuits” (Nature, 2025).
Where a name gives a salt, the structure may show the parent alone. The list shows a part of the results. The calls rarely recur for the same compound in another form.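 Kinases, fused to nanoluciferase, were expressed in K562 cells; luminescence was measured every 4 h from 2 to 18 h as percent of control (DMSO = 100%, positive control = 0%). A time point is decreased if signal falls significantly (2 sigma). Hits were called by the authors by a rule that is not shown; the count of time points alone does not decide it.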

By UniProt entry, the sequences of proteins in these tests, tags left out. Where a name states a change or a piece, a line headed by the entry shows the natural chain unless it says otherwise.
UniProt P48730: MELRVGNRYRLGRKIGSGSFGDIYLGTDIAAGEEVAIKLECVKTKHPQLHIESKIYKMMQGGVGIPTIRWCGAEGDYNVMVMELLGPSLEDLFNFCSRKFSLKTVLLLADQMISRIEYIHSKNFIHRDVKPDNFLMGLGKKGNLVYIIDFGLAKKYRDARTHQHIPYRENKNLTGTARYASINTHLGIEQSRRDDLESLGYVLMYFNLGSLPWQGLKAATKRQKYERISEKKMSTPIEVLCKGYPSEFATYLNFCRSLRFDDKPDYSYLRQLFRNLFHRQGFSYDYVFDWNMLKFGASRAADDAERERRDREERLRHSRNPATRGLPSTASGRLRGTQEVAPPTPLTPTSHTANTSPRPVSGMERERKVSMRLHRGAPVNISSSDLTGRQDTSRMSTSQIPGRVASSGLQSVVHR
UniProt Q92630: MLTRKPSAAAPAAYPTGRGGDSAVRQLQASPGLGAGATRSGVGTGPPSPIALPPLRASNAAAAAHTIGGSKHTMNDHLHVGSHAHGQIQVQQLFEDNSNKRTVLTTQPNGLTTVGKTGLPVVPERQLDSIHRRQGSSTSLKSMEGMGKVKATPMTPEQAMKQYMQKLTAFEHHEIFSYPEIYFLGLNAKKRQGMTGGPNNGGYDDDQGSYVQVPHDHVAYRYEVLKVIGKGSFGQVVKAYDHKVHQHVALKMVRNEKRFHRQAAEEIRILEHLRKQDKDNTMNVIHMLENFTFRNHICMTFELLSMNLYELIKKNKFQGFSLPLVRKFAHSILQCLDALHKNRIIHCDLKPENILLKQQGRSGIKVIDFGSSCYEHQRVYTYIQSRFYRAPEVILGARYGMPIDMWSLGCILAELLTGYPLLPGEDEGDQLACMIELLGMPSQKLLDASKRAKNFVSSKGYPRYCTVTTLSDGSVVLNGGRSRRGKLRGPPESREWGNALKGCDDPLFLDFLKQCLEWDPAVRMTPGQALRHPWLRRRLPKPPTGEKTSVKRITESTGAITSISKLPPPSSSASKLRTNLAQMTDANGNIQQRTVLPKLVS
UniProt P29317, whole entry: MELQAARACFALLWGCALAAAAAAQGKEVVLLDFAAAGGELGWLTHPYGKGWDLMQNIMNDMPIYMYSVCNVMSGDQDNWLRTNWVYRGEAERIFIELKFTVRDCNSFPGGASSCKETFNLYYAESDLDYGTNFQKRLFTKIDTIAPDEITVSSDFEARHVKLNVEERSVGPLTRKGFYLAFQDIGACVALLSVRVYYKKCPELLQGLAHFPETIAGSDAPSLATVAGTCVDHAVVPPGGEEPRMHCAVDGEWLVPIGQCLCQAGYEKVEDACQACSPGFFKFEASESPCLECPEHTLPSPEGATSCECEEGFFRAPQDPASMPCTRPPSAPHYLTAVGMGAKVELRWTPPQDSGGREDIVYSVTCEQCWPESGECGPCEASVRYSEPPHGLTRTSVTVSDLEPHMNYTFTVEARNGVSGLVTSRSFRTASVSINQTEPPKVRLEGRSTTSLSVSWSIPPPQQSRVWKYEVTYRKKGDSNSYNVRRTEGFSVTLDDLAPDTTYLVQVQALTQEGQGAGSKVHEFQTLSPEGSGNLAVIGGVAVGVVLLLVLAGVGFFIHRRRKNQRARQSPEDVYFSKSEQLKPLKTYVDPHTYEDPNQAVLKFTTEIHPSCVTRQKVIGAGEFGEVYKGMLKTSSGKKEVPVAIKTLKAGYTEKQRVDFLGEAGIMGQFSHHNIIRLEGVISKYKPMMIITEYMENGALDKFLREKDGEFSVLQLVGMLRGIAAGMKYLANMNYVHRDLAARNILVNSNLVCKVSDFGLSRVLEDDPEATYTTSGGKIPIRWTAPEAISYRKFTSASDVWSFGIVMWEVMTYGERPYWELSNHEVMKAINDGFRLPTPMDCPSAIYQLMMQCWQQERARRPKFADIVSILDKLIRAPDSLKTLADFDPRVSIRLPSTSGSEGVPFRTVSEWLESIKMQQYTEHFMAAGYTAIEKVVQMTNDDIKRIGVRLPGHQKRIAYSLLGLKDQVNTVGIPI
UniProt P21860, whole entry: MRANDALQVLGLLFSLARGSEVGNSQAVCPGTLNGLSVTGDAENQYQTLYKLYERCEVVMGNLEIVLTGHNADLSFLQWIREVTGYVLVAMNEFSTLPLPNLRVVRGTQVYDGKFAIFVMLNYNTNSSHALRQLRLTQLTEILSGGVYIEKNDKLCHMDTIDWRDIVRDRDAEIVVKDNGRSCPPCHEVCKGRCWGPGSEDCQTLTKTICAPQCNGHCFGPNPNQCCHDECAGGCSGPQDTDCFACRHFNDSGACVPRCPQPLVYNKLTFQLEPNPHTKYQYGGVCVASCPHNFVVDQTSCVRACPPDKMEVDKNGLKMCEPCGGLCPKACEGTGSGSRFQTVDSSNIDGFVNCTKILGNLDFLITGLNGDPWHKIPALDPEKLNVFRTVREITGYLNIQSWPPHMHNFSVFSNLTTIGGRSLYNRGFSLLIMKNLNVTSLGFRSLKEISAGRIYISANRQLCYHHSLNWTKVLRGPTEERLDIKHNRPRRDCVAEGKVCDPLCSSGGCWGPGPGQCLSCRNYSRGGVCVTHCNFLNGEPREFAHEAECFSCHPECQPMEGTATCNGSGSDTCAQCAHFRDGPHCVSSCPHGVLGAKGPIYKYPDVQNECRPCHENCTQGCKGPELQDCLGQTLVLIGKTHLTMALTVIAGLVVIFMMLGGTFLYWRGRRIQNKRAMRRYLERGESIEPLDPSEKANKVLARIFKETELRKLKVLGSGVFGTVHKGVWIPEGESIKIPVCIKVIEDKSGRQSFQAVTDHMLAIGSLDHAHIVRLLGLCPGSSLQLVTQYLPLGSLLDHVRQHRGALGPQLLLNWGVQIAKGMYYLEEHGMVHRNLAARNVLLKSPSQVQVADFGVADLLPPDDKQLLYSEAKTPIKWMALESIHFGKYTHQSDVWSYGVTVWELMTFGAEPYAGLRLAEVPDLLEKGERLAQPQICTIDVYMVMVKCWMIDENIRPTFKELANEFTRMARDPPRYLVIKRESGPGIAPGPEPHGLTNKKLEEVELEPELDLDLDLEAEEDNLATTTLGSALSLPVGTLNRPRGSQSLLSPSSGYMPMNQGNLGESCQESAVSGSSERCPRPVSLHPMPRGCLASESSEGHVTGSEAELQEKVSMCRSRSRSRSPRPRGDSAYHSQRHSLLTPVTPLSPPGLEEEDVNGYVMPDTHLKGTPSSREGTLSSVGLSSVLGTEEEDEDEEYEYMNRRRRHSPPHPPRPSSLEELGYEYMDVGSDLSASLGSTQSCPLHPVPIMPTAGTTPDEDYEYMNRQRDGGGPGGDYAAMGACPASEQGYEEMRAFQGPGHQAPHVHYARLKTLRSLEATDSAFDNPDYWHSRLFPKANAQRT
UniProt Q15303, whole entry R711C: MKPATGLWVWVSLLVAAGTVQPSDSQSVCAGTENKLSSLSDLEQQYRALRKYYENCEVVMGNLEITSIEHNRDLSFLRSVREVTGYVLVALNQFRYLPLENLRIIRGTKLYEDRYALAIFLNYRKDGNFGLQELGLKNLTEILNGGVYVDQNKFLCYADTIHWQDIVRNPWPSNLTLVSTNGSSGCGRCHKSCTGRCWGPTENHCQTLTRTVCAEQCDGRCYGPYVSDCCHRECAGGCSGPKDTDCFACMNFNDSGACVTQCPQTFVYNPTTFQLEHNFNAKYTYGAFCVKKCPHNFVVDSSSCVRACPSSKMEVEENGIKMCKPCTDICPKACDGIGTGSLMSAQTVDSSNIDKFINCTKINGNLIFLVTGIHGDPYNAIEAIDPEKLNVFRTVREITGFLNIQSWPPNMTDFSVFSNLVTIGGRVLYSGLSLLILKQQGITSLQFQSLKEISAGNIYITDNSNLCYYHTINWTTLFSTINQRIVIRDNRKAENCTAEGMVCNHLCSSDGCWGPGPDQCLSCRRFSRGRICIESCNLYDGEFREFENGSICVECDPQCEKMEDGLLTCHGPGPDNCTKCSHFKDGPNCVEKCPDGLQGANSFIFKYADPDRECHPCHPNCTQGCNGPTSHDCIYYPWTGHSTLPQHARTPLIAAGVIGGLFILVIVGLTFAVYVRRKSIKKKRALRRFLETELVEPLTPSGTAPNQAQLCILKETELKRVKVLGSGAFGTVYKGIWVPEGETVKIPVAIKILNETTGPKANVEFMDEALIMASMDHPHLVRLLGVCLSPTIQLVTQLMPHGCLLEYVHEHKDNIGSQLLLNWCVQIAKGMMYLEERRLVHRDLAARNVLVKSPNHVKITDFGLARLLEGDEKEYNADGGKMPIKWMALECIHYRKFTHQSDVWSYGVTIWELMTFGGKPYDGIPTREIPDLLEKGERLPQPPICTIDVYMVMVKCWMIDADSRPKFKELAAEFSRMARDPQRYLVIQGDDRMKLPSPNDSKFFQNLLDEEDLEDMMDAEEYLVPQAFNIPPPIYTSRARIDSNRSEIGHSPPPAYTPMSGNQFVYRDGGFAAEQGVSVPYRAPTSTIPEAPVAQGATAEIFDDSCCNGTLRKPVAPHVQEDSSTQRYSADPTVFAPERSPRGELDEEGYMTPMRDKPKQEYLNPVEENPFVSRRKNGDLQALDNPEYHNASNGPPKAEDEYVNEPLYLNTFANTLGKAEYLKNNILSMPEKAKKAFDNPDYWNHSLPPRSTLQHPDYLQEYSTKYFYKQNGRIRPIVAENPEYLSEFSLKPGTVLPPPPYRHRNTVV
UniProt P21802, whole entry, looked up: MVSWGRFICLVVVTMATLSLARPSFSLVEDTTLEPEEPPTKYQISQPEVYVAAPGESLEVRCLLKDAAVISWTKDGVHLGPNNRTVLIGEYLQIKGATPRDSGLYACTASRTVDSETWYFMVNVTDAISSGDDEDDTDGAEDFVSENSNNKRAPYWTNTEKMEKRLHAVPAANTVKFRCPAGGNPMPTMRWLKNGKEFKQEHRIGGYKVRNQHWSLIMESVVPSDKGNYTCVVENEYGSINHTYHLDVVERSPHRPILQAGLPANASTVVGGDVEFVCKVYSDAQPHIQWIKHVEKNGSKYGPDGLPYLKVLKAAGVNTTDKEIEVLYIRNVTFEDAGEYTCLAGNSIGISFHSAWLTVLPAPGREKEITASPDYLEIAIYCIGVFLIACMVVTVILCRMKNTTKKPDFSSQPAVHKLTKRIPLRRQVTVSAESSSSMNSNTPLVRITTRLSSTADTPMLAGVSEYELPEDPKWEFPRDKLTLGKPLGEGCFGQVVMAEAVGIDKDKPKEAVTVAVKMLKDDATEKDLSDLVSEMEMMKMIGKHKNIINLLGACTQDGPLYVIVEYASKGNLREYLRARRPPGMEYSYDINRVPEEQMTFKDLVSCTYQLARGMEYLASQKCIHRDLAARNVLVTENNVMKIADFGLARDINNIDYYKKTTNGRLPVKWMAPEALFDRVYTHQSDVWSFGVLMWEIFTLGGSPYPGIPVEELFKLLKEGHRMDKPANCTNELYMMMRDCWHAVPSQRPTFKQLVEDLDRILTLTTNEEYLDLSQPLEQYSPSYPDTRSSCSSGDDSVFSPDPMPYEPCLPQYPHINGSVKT
UniProt P22607, whole entry, looked up: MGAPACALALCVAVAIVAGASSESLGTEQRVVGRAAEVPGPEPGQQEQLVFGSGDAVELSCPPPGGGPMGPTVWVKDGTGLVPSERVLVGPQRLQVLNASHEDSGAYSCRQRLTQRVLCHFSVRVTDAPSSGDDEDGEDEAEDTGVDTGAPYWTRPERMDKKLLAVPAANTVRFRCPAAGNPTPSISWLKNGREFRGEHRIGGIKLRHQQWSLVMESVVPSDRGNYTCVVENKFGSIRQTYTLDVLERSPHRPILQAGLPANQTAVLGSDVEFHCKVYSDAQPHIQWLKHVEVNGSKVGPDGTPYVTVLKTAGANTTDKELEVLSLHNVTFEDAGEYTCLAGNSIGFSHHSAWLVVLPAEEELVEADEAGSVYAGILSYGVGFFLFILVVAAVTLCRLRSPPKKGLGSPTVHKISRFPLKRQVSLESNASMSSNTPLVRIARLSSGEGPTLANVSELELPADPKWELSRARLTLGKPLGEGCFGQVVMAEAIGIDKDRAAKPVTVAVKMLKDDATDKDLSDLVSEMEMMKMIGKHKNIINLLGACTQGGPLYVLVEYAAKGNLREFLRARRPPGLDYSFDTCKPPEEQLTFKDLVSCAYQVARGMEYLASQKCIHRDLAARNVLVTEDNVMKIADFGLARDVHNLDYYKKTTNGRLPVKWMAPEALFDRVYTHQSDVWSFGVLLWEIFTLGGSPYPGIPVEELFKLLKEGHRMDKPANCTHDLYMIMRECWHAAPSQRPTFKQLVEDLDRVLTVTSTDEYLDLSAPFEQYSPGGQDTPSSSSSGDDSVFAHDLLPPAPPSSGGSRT

Tests used:
Test in all cases: number of time points (of 5) at which kinase-Nluc abundance scored as decreased, DMSO-normalised (count); higher = more persistent destabilization
Details in all cases: K562; 2-18 h
[1] = target: CSNK1A1 (UniProt P48729)
[2] = target: CSNK1D (UniProt P48730)
[3] = target: DDR1 (UniProt Q08345)
[4] = target: DYRK1B (UniProt Q9Y463)
[5] = target: DYRK2 (UniProt Q92630)
[6] = target: EGFR (UniProt P00533)
[7] = target: EGFR_G719S (UniProt P00533)
[8] = target: EGFR_G719S_T790M (UniProt P00533)
[9] = target: EGFR_L718V (UniProt P00533)
[10] = target: EGFR_L858R (UniProt P00533)
[11] = target: EGFR_L861Q (UniProt P00533)
[12] = target: EGFR_T790M (UniProt P00533)
[13] = target: EPHA2 (UniProt P29317)
[14] = target: ERBB3 (UniProt P21860)
[15] = target: ERBB4_R711C (clone: ERBB4_mut) (UniProt Q15303)
[16] = target: ERN1 (UniProt O75460)
[17] = target: FGFR1 (UniProt P11362)
[18] = target: FGFR2 (UniProt P21802)
[19] = target: FGFR3 (UniProt P22607)
[20] = target: FGR (UniProt P09769)

Structure (SMILES)	number of time points [1]	number of time points [2]	number of time points [3]	number of time points [4]	number of time points [5]	number of time points [6]	number of time points [7]	number of time points [8]	number of time points [9]	number of time points [10]	number of time points [11]	number of time points [12]	number of time points [13]	number of time points [14]	number of time points [15]	number of time points [16]	number of time points [17]	number of time points [18]	number of time points [19]	number of time points [20]
CN1CCN(c2ccc(-n3cc(-c4ccncc4OCC4CCNCC4)cn3)cc2)CC1 [MELK-8a (hydrochloride)] (10 µM)	3	0	3	1	4	2	2	3	2	2	3	0	2	3	1	0	0	0	0	0
Cn1c(N2CCO[C@@H](c3ccc(F)cc3)C2)nc(-c2ccncn2)cc1=O (10 µM)	0	0	0	0	0	0	0	0	0	0	0	0	0	0	0	0	0	0	0	0
CN(C)CCOc1cc(-c2cn[nH]c2)ccc1NC(=O)C1COc2ccccc2O1 (stereo not given) (10 µM)	0	0	0	0	0	0	0	0	0	0	0	0	0	0	0	0	0	0	0	0
CN1C(=O)N[C@@H](Cc2c[nH]c3c(Cl)cccc23)C1=O [Necrostatin 2 (S enantiomer)] (10 µM)	0	0	0	0	0	0	0	0	0	0	0	0	0	0	0	0	0	0	0	0
COc1cc(N2CCC(N3CCN(C)CC3)CC2)ccc1Nc1ncnc(Nc2ccccc2S(=O)(=O)C(C)C)n1 (10 µM)	0	0	0	0	0	0	0	0	0	0	0	0	0	0	0	0	0	0	0	0
CC/C(=C(\c1ccccc1)c1ccc(OCCNC)cc1)c1ccccc1 [N-Desmethyltamoxifen (hydrochloride)] (2.5 µM)	0	0	0	0	0	0	0	0	0	0	0	0	0	0	0	0	0	0	0	0
CC(ONC(=O)c1cc(C(F)(F)F)cc(C(F)(F)F)c1)C(=O)Nc1ccc(Cl)cc1 (stereo not given) (2.5 µM)	5	0	0	0	0	0	5	0	0	0	0	0	0	0	0	0	0	0	0	0
CS[C@@]1(C(=O)Nc2ccc3[nH]nc(-c4ccc(OC(C)C)nc4)c3c2)CCN(CC(=O)N2CC=C(c3ccc(-c4ncn(C)n4)cc3)CC2)C1 (2.5 µM)	0	0	0	0	0	0	0	0	0	0	0	0	0	0	0	0	0	0	0	0
C=CC(=O)Nc1cc(Nc2nccc(-c3cn(C)c4ccccc34)n2)c(OCC(F)(F)F)nc1N(C)CCNC [AST5902  (trimesylate)] (2.5 µM)	0	0	3	0	0	0	0	0	0	0	0	0	0	0	0	0	0	0	4	0
Nc1ccc(O)c(C(=O)O)c1 [5-Aminosalicylic Acid] (10 µM)	0	0	0	0	0	0	0	0	0	0	0	0	0	0	0	0	0	0	0	0
COc1cccc(-c2cc(=O)c3ccccc3o2)c1N (10 µM)	0	0	0	0	0	0	0	0	0	0	0	0	0	0	0	0	0	0	0	0
CC(C)(CCCCCC(O)CCCCCC(C)(C)C(=O)O)C(=O)O [Bempedoic acid] (10 µM)	0	0	0	0	0	0	0	0	0	0	0	0	0	0	0	0	0	0	0	0
CN1CCC(Nc2ccc(C(=O)Nc3cc(-c4ccc5c(c4)OCO5)[nH]n3)cc2)CC1 (10 µM)	0	0	1	0	4	0	0	0	0	0	0	0	0	0	3	0	0	0	0	0
COc1ccc(CN2CCC(c3ccc4nc(C(=O)N5CCN(Cc6ccc(C(F)(F)F)cc6)CC5)[nH]c4c3)CC2)cn1 (2.5 µM)	0	0	2	0	2	0	0	1	0	0	0	0	0	2	0	0	0	0	0	0
CN(C)c1ccc(/C=C2\C(=O)Nc3ccccc32)c2ccccc12 (10 µM)	0	0	0	0	0	0	0	0	0	0	0	0	2	0	0	0	0	0	0	0
O=C(O)/C=C(\CCc1ccc(Cl)cc1)c1ccccc1 (10 µM)	0	0	0	0	0	0	0	0	0	0	0	0	0	0	0	0	0	0	0	0
O=C(Nc1ccccc1C(=O)NC1CCCCNC1=O)c1cc2ccccc2s1 (stereo not given) (10 µM)	0	0	0	0	0	0	0	0	0	0	0	0	0	0	0	0	0	0	0	0
CN(C[C@@H]1COCCO1)S(=O)(=O)Nc1ccc2ccc3ncc(-c4cnn(C)c4)cc3c(=O)c2c1 (2.5 µM)	0	0	0	0	0	0	0	0	0	0	0	0	0	0	0	0	0	0	0	0
CN1CCN(Cc2ccc(-c3cnc4[nH]cc(-c5ccc6[nH]ccc6c5)c4c3)cc2)CC1 (2.5 µM)	0	0	1	0	0	0	0	0	0	1	0	0	0	4	0	0	0	3	0	0
CC(C)n1c(CO)nc2c(F)cc(-c3nc(Nc4ccc(CN5CCNCC5)cn4)ncc3F)cc21 (10 µM)	1	0	3	2	4	1	3	3	1	3	3	3	1	4	4	2	0	3	0	0
CC(C)(C)S(=O)(=O)c1cc2c(Nc3ccc4scnc4c3)ncnc2cc1OCCOP(=O)(O)O (2 µM)	0	0	0	0	0	0	0	0	0	0	0	0	0	0	0	0	0	0	0	0
COc1ccc2cc1Oc1ccc(cc1)C[C@H]1c3cc(c(OC)cc3CCN1C)Oc1c(O)c(OC)cc3c1[C@H](C2)N(C)CC3 [Fangchinoline] (2.5 µM)	0	0	0	0	0	0	0	0	0	0	0	0	0	0	0	0	0	0	0	0
NC(=O)c1sc2c([N+](=O)[O-])cc(C(F)(F)F)cc2[n+]1[O-] [Cyclapolin 9] (10 µM)	0	0	0	0	0	0	0	0	0	0	0	0	0	0	0	0	0	0	0	0
O=C1NC(=O)C(Cc2c[nH]c3c(Cl)cccc23)N1 (stereo not given) [Necroptosis-IN-1] (10 µM)	0	0	0	0	0	0	0	0	0	0	0	0	0	0	0	0	0	0	0	0
N#C/C(=C/c1ccc(O)c(O)c1)C(=O)N1CCc2ccccc21 [Tyrphostin AG 528] (10 µM)	0	0	0	0	0	0	0	0	0	0	0	0	0	0	0	0	0	0	0	0
C=CC(=O)N1CCC(c2ccc(C(N)=O)c(-c3ccc(Oc4ccccc4)cc3)n2)CC1 [Orelabrutinib] (2.5 µM)	0	0	0	0	0	0	0	0	0	0	0	0	0	0	0	0	0	0	0	0
COc1ccc(Br)c(C=O)c1O [6-Bromo-2-hydroxy-3-methoxybenzaldehyde] (10 µM)	0	0	0	0	0	0	0	0	0	0	0	0	0	0	0	0	0	0	0	0

An excerpt from above in order of formula weight, largest number first:
Structure (SMILES)	number of time points [1]	number of time points [2]	number of time points [3]	number of time points [4]	number of time points [5]	number of time points [6]	number of time points [7]	number of time points [8]	number of time points [9]	number of time points [10]	number of time points [11]	number of time points [12]	number of time points [13]	number of time points [14]	number of time points [15]	number of time points [16]	number of time points [17]	number of time points [18]	number of time points [19]	number of time points [20]
C=CC(=O)Nc1cc(Nc2nccc(-c3cn(C)c4ccccc34)n2)c(OCC(F)(F)F)nc1N(C)CCNC [AST5902  (trimesylate)] (2.5 µM)	0	0	3	0	0	0	0	0	0	0	0	0	0	0	0	0	0	0	4	0
C=CC(=O)N1CCC(c2ccc(C(N)=O)c(-c3ccc(Oc4ccccc4)cc3)n2)CC1 [Orelabrutinib] (2.5 µM)	0	0	0	0	0	0	0	0	0	0	0	0	0	0	0	0	0	0	0	0
CC(C)(CCCCCC(O)CCCCCC(C)(C)C(=O)O)C(=O)O [Bempedoic acid] (10 µM)	0	0	0	0	0	0	0	0	0	0	0	0	0	0	0	0	0	0	0	0
